The target of assay [1] is T1, Rsc1 fused to Pk epitope tags (S. cerevisiae) (UniProt P53236).
T1 sequence: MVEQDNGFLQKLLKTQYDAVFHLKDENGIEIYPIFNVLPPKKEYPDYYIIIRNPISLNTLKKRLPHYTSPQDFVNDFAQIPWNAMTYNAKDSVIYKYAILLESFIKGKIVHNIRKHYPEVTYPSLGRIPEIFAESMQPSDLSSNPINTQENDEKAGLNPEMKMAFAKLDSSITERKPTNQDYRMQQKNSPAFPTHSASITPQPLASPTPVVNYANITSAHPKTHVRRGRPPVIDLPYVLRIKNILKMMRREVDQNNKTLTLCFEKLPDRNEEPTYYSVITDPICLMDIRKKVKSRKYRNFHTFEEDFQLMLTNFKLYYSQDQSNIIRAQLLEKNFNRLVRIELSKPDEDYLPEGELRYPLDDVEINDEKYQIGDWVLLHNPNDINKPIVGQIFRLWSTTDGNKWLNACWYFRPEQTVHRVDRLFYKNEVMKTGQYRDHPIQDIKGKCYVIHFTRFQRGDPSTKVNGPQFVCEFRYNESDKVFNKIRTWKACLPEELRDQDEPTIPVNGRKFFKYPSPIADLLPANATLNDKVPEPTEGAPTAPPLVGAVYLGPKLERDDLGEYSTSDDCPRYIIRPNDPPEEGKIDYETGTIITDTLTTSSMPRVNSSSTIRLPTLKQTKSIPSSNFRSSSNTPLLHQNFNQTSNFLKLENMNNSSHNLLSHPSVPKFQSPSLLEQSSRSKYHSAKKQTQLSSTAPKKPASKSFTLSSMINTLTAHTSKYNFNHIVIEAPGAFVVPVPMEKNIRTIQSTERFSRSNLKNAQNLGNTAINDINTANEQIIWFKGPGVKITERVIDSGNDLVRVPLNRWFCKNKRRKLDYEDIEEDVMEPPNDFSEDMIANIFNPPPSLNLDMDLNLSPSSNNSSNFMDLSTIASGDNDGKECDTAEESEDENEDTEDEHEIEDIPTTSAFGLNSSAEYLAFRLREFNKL
Description: co-IP; S. cerevisiae cell extracts in EBX buffer (100 mM KCl, 0.25% Triton X-100, RNase and benzonase); Pk-tagged Rsc1 or Rsc2 on anti-Pk protein A Dynabeads, last wash 300 mM KCl; HA-tagged Scc2 or Scc4 detected by immunoblotting. Background: A western blot detects proteins with antibodies after separation by electrophoresis.

Chains of the proteins cited; added tags and fusions are not shown. Residues count along the entry.
UniProt Q06488: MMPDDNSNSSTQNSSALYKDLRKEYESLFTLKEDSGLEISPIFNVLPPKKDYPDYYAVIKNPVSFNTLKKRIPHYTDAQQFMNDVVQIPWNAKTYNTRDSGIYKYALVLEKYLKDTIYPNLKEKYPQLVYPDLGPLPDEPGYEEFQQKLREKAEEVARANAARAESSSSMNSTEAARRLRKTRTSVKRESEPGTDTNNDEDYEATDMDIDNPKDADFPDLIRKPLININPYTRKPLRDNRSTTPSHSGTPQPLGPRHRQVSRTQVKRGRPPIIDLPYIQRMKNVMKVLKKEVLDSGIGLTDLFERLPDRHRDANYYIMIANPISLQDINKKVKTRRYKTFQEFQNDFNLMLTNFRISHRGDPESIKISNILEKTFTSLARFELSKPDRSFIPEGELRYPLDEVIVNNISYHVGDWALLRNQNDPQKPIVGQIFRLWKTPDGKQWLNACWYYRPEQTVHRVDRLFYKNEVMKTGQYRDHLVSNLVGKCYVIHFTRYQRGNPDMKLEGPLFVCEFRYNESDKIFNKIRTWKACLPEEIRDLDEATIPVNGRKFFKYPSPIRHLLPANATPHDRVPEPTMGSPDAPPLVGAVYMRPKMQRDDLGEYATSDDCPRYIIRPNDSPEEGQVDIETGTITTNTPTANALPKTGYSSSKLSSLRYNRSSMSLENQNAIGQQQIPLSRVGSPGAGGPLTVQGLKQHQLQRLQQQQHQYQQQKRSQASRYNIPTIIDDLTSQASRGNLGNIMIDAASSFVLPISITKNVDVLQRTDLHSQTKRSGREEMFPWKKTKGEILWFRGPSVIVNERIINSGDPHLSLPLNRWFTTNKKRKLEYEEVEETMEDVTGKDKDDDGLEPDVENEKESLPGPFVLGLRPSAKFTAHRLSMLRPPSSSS
UniProt Q9UTN6: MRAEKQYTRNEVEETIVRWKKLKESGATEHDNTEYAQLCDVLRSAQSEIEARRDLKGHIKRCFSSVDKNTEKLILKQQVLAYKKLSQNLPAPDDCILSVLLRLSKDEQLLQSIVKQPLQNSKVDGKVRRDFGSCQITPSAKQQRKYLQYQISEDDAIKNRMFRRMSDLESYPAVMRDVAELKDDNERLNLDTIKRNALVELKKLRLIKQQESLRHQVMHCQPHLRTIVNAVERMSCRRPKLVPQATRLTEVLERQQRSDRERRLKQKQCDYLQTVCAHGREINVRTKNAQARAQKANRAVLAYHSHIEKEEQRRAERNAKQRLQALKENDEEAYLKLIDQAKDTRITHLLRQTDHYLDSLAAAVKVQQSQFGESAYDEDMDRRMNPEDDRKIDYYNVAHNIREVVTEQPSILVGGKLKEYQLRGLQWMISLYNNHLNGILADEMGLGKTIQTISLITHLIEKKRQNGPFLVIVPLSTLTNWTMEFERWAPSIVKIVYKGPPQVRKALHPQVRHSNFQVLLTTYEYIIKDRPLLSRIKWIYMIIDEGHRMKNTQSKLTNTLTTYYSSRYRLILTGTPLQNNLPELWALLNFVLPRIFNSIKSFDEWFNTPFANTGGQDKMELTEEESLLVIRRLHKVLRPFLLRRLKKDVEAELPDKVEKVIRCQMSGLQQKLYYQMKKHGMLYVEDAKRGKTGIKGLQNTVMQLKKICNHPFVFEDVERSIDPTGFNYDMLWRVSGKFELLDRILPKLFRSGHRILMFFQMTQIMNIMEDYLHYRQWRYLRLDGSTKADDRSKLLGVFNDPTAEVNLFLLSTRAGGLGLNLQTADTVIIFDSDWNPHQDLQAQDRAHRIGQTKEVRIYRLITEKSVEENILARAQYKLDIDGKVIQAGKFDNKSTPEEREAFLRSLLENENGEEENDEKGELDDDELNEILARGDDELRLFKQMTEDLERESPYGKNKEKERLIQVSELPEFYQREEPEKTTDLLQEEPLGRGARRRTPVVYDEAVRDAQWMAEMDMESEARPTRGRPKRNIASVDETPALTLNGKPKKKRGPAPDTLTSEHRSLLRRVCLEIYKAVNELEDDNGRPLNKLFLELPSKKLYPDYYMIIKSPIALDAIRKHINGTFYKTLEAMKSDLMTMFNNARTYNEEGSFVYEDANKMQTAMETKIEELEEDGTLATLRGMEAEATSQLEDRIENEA
UniProt P32597, residues 365-1097: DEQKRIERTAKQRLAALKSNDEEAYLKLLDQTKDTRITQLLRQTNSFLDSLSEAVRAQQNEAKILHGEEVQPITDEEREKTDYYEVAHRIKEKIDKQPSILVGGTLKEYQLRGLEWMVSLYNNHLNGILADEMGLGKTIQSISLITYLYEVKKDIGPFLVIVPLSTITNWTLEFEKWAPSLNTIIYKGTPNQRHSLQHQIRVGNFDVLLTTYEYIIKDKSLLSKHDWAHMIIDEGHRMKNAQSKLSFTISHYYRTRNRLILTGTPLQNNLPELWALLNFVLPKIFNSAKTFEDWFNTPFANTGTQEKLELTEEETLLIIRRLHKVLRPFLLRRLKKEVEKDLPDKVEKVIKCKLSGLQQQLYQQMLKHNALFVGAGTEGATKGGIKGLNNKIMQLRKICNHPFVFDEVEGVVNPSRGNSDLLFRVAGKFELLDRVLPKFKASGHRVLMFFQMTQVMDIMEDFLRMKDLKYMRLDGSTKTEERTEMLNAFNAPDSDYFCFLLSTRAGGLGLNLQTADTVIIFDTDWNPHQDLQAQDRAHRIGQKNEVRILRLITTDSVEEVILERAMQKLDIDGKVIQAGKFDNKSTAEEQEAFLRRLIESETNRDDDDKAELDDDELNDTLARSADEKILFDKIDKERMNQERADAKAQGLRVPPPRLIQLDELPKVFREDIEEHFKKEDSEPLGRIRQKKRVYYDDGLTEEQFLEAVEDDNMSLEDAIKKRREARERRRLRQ

Assay [2] addresses Rsc2 fused to Pk epitope tags (S. cerevisiae) (UniProt Q06488). The assay is described as above.
The target of assay [3] is T2, Scc4-Scc2N cohesin loader module (S. cerevisiae) (UniProt P40090+Q04002).
T2 sequence 1: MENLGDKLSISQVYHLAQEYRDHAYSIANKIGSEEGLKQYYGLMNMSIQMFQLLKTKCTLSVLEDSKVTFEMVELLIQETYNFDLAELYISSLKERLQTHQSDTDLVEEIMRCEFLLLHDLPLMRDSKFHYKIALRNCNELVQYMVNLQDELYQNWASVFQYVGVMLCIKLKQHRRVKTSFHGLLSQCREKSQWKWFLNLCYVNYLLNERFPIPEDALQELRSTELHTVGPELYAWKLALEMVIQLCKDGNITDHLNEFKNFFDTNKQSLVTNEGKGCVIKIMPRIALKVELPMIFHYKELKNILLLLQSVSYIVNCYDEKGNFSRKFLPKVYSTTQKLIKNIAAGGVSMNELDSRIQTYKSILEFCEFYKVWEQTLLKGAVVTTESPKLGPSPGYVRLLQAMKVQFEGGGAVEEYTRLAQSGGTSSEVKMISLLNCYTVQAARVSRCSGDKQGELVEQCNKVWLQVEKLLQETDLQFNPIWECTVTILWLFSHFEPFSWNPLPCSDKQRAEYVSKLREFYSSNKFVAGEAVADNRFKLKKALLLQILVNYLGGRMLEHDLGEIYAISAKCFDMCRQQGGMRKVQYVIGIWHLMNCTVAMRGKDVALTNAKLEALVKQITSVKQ
T2 sequence 2: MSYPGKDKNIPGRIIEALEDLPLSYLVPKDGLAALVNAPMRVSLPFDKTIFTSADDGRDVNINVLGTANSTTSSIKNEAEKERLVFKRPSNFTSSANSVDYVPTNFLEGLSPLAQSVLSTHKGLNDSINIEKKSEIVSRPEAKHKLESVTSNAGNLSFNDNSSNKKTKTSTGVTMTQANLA
Briefly: pull-down; 10 pmol Scc2-Scc4, Scc2C or Scc4-Scc2N on anti-HA protein A magnetic beads, 5 uM Sth1 365-1097, 4 C 30 min, IP buffer; Coomassie Blue staining; repeated without nucleotide, with ATP or with ADP-BeF3 (ADP-BeF3 markedly increased the interaction); both purified.

The target of assay [4] is fission yeast RSC complex (its ATPase subunit fused to a protein A tag) (S. pombe) (UniProt Q9UTN6). Briefly: pull-down; S. cerevisiae or S. pombe cell extracts in EBX buffer with RNase and benzonase; protein A-tagged remodeler ATPase subunits on IgG-coated Dynabeads, last wash 300 mM KCl; Scc4 or Ssl3 detected by immunoblotting; performed once.

These are yes or no findings as the source states them, for the method shown. For part of these data: In cells and extracts the contact can be indirect. Some binding calls cover weakened binding; strength is not graded here. For part of these data: Tags and fused reporters may be left off the sequences shown.

With “cohesin loader with an HA epitope on its Scc2 subunit (from UniProt Q04002 1-1493; P40090 1-624) (complex)”, the binding entry in assay [1] and in assay [2] was “binds” each time. For “cohesin loader with an HA epitope on its Scc4 subunit (from UniProt Q04002 1-1493; P40090 1-624) (complex)”, the binding entry in assay [1] and in assay [2] was “binds” in each case. For the molecule “Sth1 365-1097 fragment (ATPase motor module) (from UniProt P32597 365-1097) (domain or fragment)”, the binding result in assay [3] is listed as “binds”.

B1: Ssl3, the fission yeast Scc4 ortholog (protein, UniProt O94459 1-559)
chain: MTGLNETDARILVTSRHLFLWPLAETYFKNAEKVLQDCGVCDSFGRLLSTGLQCLYSVLMDTKMEPRVELLTRKRICEVLLSHTVEYADVEAILNRALIIAEQHNLTEYKFSLQLLLSRVFCRTSPKAAKVLLTRCVREAEEYAKVAEIYHSNNQSNPHRWVYEFLLATLEFQNVSQVANSIHNYANHHKHQHLQLLAMILNQSLPMDEISTDSDQISILCLVTQIAQCLRKGEILLAREILPKIHSKLESETFVWPSSYIDFFIDDTSKISIKWMSINQLYLLIYLISGFCYISDSTSGRASRFLQEGLRITGDFKHQERCVLEYLESQKWINNITKDMKYYLIATYLSRSRLSKAERILQSTEDDQTGFLGILKGMYLQKRGDLKKAEVHYRETAKNFSFRTDTFIISTLNLINILEDSAAASRCLESIEPLCNKHEKKIFKLWLLVLKVIREGPQVHQSNVLPRVIQQSSEYANTQLQYISLTELSERFGKLEHAEKMAISALELAKKSKDELWCLISGRILEDFYRSVQKYDKMRQQALENSAYSKLIEDIYSFV
B1: the binding result in assay [4] is reported as “binds”.

Values taken from paper PMC9744909, “Functional crosstalk between the cohesin loader and chromatin remodelers” (Nature Communications, 2022).
